Source: PubChem BioAssay AID504467 (National Center for Advancing Translational Sciences (NCATS), 2011)
The campaign covered roughly 330,000 compounds. About 7,700 (2.3%) were called active. The shares of active, inactive and inconclusive entries below differ from those in the screen. The call rests on the fitted dose curve; in most records, active means well fitted inhibition curve with a large enough effect; inconclusive means small, poorly fitted or top-dose-only effect, or effect the other way; inactive means flat fitted curve, though single readings scatter. Potencies of inconclusive entries are doubtful fits and often do not repeat.
On the % scale 0 is the no-effect control and ±100 the full control effect; potency means the concentration at half of the fitted maximal effect.

Assay: qHTS screen for small molecules that inhibit ELG1-dependent DNA repair in human embryonic kidney (HEK293T) cells expressing luciferase-tagged ELG1; further: nearly all actives have a fitted effect of over 55% in size
Conditions: HEK293T ELG1-luciferase reporter, luminescence, 16 h, DNA damage induced by 5-fluorouridine; activity change, negative = inhibition: at 46.1 µM (top of the series)
How it was run: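 5-Fluorouridine DNA damage + compound/DMSO, 2,000 cells/well, 16 h, 37 °C/5% CO2. ONE-Glo, 30 min RT, luminescence. Readout = decrease in reporter signal.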
In the case of `COc1cc(C(=O)NCc2nnc(SCC(=O)NC3CCCCC3)o2)cc(OC)c1OC`, the Potency is reported as “inactive”.
With `O=C(Cc1ccc(Br)cc1)Nc1ncc([N+](=O)[O-])s1` the Potency was “inactive”.
With `CC(Oc1ccc(Cl)cc1Cl)C(=O)Nc1ncccn1` (configuration not stated) the activity change, negative = inhibition was inconclusive: 99.4% [activator].
For `C/C(CC(=O)Nc1cccc(Cl)c1Cl)=N\NC(=O)c1ccccc1N`, the Potency was “inactive”.
For `CCn1ncc(/C=N/O)c1C`, the Potency was inconclusive: 14.6 µM [inhibitor, partial curve].
In the case of `COc1cc(-c2nnc(SCc3c(F)cccc3Cl)o2)cc(OC)c1OC`, the Potency is reported as inconclusive: 18.4 µM [inhibitor, single point].
For `C=CCn1c(Cc2ccccc2)nc2c(cnn2-c2ccccc2)c1=O`, the Potency was active: 20.6 µM.
For `NC(=O)c1cc(-c2ccccc2)sc1NC(=O)CN1CCCCC1`, the Potency was inconclusive: 29.1 µM [inhibitor, single point].
For `CCCc1cc(=O)n2nc(N3CCC(C(=O)NCc4ccco4)CC3)sc2n1`, the Potency was “inactive”.
With `CC(C)(C)c1ccc(C(=O)Nc2ccc(F)cc2)s1` the Potency was inconclusive: 2.59 µM [activator, partial curve].
For `CCn1ccnc1CN(C)Cc1cn[nH]c1-c1ccc(F)cc1F`, the Potency was inconclusive: 9.2 µM [inhibitor, partial curve].
With `Clc1ccc(OCc2nnc(SCc3nc4ccccc4[nH]3)n2Cc2ccco2)cc1` the Potency was active: 16.4 µM.
With `O=C(NCc1ccc(/C=c2\sc3n(c2=O)CCN=3)o1)C(=O)Nc1ccccc1` the Potency was “inactive”.
For `COc1ccccc1NS(=O)(=O)c1ccc2oc(SC(C)C(=O)N3CCNC3=O)nc2c1` (configuration not stated), the Potency was active: 25.9 µM.
In the case of `Cc1cc(-c2ccc(C)c(S(=O)(=O)NCc3ccc(OC(C)C)cc3)c2)on1`, the Potency is reported as inconclusive: 23.1 µM [inhibitor, partial curve, poor fit].
In the case of `Cc1cccc(CS(=O)(=O)Cc2ccc(C(=O)NCc3cccs3)o2)c1`, the Potency is reported as inconclusive: 29.1 µM [inhibitor, single point].
With `CCN(CC(=O)NC1CCCC1)S(=O)(=O)c1ccc(Br)cc1` the Potency was inconclusive: 7.3 µM [inhibitor, partial curve, poor fit].
In the case of `Cc1cc(NC(=O)C2CC(=O)N(c3cccc(Cl)c3)C2)no1` (configuration not stated), the Potency is reported as “inactive”.
For `NNC(=O)c1ccc(S(=O)(=O)N2CCc3ccccc32)cc1`, the Potency was “inactive”.
With `N#Cc1ccccc1OCC(=O)Nc1ccc(N2CCOCC2)cc1N1CCOCC1` the Potency was “inactive”.
In the case of `Nc1nonc1-n1nnc(C(=O)N/N=C/c2ccncc2)c1-c1ccccc1`, the Potency is reported as “inactive”.
With `CCC(Sc1nc2n[nH]c(C)c2c(=N)n1-c1cccc(Cl)c1C)C(=O)N(CC)CC` (configuration not stated) the Potency was inconclusive: 9.2 µM [inhibitor, partial curve].
In the case of `Cc1occc1C(=O)N/N=C/c1cnn(C)c1C`, the Potency is reported as inconclusive: 18.4 µM [activator, partial curve].
In the case of `COC(=O)c1cnc(SCc2ccc(Cl)cc2)n1C`, the Potency is reported as inconclusive: 29.1 µM [activator, single point].
For `CCN1CCN(C(=O)NC2CC(=O)N(c3ccc(OC)cc3)C2)CC1` (configuration not stated), the Potency was “inactive”.
With `C=CCNC(=S)Nc1cccc(NC(=S)NCC=C)c1` the Potency was “inactive”.
With `CCNC(=S)N1CCN(c2nc(CC)nc3sc4c(c23)CCCC4)CC1` the Potency was inconclusive: 18.3 µM [inhibitor, single point].
In the case of `CCCCn1c(SCC(N)=O)nnc1-c1cc(OC)c(OC)c(OC)c1`, the Potency is reported as inconclusive: 16.4 µM [activator, single point].
With `Clc1ccc(CSc2ncn[nH]2)cc1` the Potency was “inactive”.
With `Cc1ccc(S(=O)(=O)Nc2ccccc2N2CCCCC2)cc1` the Potency was inconclusive: 18.3 µM [inhibitor, single point].
In the case of `CCN(CC(=O)NCCc1ccc(S(N)(=O)=O)cc1)Cc1nc2cc(OC)c(OC)cc2c(=O)[nH]1`, the Potency is reported as inconclusive: 16.4 µM [inhibitor, single point].
In the case of `CC1CCCN(c2nc3ccsc3c(=O)s2)C1` (configuration not stated), the Potency is reported as inconclusive: 18.4 µM [activator, partial curve].
For `Cn1c(=O)c2c(nc(CN3CCN(Cc4ccccc4)CC3)n2Cc2ccccc2)n(C)c1=O`, the Potency was inconclusive: 7.31 µM [inhibitor, partial curve, poor fit].
In the case of `Cc1ccc(CSc2nnc(-c3ccccn3)n2C)cc1`, the Potency is reported as inconclusive: 11.6 µM [activator, partial curve].
With `Fc1ccc(N2CCN(Cc3ccccn3)CC2)cc1` the Potency was “inactive”.
For `CCCCC(=O)NC(c1ccc(C(C)C)cc1)c1ccc2cccnc2c1O` (configuration not stated), the Potency was inconclusive: 5.17 µM [inhibitor, partial curve].
With `CCOC(=O)C1CCN(CC(=O)Nc2ccc(OC)c(Cl)c2)CC1` the Potency was inconclusive: 16.4 µM [activator, partial curve, poor fit].
With `Cc1cccc(NC(=O)c2cnc3ccccn3c2=O)c1` the Potency was inconclusive: 0.92 µM [activator, full curve].
With `Cc1cc2cc(OCc3ccccc3)ccc2n1C` the Potency was inconclusive: 18.3 µM [activator, partial curve].
In the case of `CCCc1ccc(-c2cc(C(=O)NC3=NCCS3)c3ccccc3n2)cc1`, the Potency is reported as inconclusive: 1.84 µM [activator, partial curve].
In the case of `Cc1ccc(C(=O)OCC(=O)Nc2sccc2C(N)=O)cc1NC(=O)c1ccco1`, the Potency is reported as active: 8.2 µM.
With `CN(C)Cc1nc2ccccc2c(=O)n1CC#N` the Potency was inconclusive: 0.461 µM [inhibitor, full curve, poor fit].
With `Cc1cc(NS(=O)(=O)c2ccc(NC(=O)C(C)Oc3cc(C)c(Cl)c(C)c3)cc2)no1` (configuration not stated) the Potency was “inactive”.
With `O=c1ccc2ccc(O[C@@H]3O[C@H](CO[C@@H]4OC[C@](O)(CO)[C@H]4O)[C@@H](O)[C@H](O)[C@H]3O)cc2o1` the Potency was inconclusive: 8.2 µM [activator, partial curve].
With `CCOC(=O)C1=C(C)NC(=O)NC1c1ccc(N2CCC(c3ccccc3)=N2)cc1` (configuration not stated) the Potency was “inactive”.
For `O=C(NC1CCSc2ccccc21)c1cccc(Cl)c1` (configuration not stated), the Potency was inconclusive: 10.3 µM [inhibitor, partial curve, poor fit].
In the case of `CCN(CC)c1ccc(/C=C2\SC(N)=NC2=O)cc1`, the Potency is reported as inconclusive: 12.6 µM [activator, partial curve, poor fit].
